Test results: patent publication US20070015132A1 (priority 2001, published 2007)

System: Mouse fibroblast cells (ATCC CRL-10225)
Type: cell-based

[F-].[Na+] [fluoride, sodium fluoride]
effect on medium acidification rate: inhibit
